Paper PMC8476124
No constants are given. Whether binding was seen depends on the method and setting. Some entries that bind do so weakly or less than the wild type.

Sequences of proteins named here, by UniProt entry; tags and fusion partners are left off.
UniProt Q9UKV8: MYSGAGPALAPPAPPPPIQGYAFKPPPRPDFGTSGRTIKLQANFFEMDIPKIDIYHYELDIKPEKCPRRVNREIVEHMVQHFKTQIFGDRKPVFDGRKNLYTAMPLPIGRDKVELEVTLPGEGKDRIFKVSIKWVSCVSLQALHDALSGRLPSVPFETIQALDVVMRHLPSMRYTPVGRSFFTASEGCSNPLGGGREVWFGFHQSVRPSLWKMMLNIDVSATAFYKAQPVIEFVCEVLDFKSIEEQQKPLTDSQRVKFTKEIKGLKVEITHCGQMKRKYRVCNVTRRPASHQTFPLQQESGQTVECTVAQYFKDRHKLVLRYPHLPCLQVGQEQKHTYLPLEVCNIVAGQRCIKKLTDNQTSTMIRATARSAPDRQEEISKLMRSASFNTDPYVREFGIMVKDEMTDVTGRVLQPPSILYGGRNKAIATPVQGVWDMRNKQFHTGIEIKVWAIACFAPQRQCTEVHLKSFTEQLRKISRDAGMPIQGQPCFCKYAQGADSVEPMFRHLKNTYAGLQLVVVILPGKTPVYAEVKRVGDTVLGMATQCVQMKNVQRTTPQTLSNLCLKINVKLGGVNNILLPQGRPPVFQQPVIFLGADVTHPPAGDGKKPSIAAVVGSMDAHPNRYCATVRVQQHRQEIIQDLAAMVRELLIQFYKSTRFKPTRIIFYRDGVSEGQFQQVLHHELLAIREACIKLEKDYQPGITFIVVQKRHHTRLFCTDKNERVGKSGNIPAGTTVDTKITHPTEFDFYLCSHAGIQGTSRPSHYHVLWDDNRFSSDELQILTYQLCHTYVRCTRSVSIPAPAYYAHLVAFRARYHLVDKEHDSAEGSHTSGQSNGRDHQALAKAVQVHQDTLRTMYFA
UniProt Q8NDV7: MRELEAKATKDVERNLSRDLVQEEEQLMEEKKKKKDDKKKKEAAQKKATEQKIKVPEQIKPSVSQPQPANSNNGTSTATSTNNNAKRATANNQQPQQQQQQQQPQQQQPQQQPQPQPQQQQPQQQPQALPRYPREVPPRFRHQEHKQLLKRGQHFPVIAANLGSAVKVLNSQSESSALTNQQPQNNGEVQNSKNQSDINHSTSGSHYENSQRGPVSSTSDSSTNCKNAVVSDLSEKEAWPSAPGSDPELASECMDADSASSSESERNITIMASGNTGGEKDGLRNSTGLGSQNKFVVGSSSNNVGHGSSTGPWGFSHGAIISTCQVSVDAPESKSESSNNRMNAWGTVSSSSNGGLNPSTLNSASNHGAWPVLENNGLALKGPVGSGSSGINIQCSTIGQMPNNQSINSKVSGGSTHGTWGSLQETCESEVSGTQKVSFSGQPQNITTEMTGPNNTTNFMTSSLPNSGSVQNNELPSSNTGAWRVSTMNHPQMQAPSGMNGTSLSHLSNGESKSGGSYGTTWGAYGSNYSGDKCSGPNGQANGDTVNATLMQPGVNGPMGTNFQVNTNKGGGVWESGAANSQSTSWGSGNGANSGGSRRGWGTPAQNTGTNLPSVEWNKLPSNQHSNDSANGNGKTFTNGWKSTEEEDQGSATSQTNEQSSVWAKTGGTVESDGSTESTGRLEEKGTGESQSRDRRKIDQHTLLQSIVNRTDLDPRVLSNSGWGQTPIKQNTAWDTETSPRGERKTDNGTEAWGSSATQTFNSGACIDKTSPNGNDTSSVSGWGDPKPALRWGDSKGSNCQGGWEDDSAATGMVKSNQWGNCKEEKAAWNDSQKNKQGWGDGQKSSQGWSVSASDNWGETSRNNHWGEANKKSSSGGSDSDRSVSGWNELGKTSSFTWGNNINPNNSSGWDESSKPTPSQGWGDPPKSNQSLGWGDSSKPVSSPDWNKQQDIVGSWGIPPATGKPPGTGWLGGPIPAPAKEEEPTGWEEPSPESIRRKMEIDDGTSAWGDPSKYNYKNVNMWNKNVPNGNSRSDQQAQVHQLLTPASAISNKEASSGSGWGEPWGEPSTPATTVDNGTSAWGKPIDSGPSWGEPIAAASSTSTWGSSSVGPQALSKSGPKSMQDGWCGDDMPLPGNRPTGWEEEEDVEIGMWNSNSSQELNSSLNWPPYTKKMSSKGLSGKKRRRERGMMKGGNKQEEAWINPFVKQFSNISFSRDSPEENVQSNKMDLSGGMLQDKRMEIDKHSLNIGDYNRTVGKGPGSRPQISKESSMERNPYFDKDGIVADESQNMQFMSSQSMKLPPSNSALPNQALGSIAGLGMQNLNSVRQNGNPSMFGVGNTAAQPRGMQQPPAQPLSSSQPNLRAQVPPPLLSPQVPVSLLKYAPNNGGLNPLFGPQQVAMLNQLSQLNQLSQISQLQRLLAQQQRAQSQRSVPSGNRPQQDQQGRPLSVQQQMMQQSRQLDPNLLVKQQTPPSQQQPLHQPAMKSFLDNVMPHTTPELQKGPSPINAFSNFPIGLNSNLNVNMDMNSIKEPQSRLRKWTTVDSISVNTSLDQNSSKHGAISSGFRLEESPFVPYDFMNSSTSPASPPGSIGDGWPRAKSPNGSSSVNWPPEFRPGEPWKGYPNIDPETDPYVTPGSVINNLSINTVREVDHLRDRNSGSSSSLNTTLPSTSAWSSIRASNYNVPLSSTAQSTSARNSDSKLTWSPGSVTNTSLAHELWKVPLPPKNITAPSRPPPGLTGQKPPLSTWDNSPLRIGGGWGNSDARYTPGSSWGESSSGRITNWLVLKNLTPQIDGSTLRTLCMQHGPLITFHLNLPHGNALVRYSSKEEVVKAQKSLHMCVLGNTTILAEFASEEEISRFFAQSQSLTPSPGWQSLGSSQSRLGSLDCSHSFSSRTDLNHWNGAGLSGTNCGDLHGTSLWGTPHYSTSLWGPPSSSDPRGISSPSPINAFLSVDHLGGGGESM

Target: AGO2 (human, endogenous) (human (endogenous in HCT116)) (UniProt Q9UKV8)
Assay: SEC; total HCT116 lysates (no fusion protein, T6B or T6B^Mut) on Superose 6 10/300 GL in SEC buffer; fractions TCA-precipitated and immunoblotted for AGO2, TNRC6A, T6B, PABP1

Substance: TNRC6A (human, endogenous) (from UniProt Q8NDV7 1-1962)
- binding: binds
